Experiment [1] concerns the target BRCA1 (breast cancer susceptibility protein 1) fragment housing amino acids 219-504 (UniProt P38398). The experiment in a line: NMR titration; 1H-15N signal amplitudes, chemical shift perturbations, 15N T2 and heteronuclear NOE of MAX with BRCA1 219-504; 35°C, pH 5.5, high organic salt concentrations; the disordered MAX monomer dominates; both purified.
Experiment [2] shares this target. Briefly: SAXS; pair distance distribution functions of BRCA1 219-504 in the absence and presence of MAX; both purified.
For experiment [3] the target is unchanged. The experiment in a line: condition: only MAX as the MAX:MAX homodimer (before the temperature was raised to 35°C); NMR titration; 1H-15N spectra of the MAX:MAX homodimer exposed to BRCA1 219-504, before the temperature was raised to 35°C; pH 5.5, high organic salt concentrations; temperature not given; both purified.

By UniProt entry, the sequences of proteins in these tests, tags left out. Residues count along the entry.
UniProt P38398, residues 219-504: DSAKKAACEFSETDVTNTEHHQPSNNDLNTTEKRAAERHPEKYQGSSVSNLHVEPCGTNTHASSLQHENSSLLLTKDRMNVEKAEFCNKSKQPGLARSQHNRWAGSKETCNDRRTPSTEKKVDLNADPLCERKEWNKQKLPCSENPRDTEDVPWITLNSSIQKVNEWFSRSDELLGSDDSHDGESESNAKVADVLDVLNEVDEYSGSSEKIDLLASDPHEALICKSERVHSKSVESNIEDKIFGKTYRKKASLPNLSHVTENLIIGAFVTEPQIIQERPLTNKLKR
UniProt P61244: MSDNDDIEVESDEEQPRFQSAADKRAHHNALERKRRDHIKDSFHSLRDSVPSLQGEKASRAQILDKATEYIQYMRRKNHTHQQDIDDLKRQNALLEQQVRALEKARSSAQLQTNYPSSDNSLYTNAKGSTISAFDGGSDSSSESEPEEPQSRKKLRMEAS

Results are given in words; binding and its absence hold for the method and conditions named. Some binding calls cover weakened binding; strength is not graded here.

On to “MAX (MYC-associated factor X) (from UniProt P61244 1-160)”, for which the binding result in experiment [1] is “binds”; in experiment [2] it was “binds”; in experiment [3], “no binding”.
